Data taken from PubChem BioAssay AID1347076 (National Center for Advancing Translational Sciences (NCATS), 2019).
Hit rate of the full screen: of about 400,000 compounds, about 13,000 (3.2%) were called active. Inconclusive means that the source gave no clear call. Such entries were picked first, then a sample of the others. Calls come from the whole dose curve; as a rule, active = well fitted cell-killing curve with a large enough effect; inconclusive = small, poorly fitted or top-dose-only effect, or effect the other way; inactive = flat fitted curve, though single readings scatter. Potencies beside an inconclusive call are fits to weak or partial responses and may not hold up.
% is set by controls: 0 for no effect and ±100 for the full control effect; potency is the fitted concentration of half-maximal effect.

Assay: qHTS assay for MDR1-selective chemotherapeutics: Primary screen using the drug-selected MDR subline cells KB-V1; note: nearly all actives have a fitted effect of over 60% in size
Details: KB-V1 MDR cells viability, CellTiter-Glo, 72 h; activity change, negative = cytotoxicity: at 46.1 µM (top of the series)
Procedure, shortened: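 Cytotoxicity via CellTiter-Glo luminescence after 72 h compound exposure at 37 degrees C. Cells: drug-selected KB-V1 line, DMEM phenol-red free plus 10% FBS. Compounds tested at multiple concentrations; normalized data fitted to concentration-effect curves.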
With `CCOc1ccc2c(=O)c(-c3ccc4c(c3)OCCCO4)c(C)oc2c1` the Potency was inconclusive: 20.6 µM [cytotoxic, partial curve].
For `C[C@H](NC(=O)c1ccco1)C(=O)NCCc1ccc(S(N)(=O)=O)cc1`, the Potency was inconclusive: 8.2 µM [rising, partial curve].
With `O=C(Nc1nc2ccccc2[nH]1)c1ccc(Br)o1` the Potency was inconclusive: 23.1 µM [cytotoxic, single point].
For `Cc1nc2cc(-c3sccc3-n3cccc3)nn2c(C)c1C`, the Potency was active: 16.4 µM.
With `COc1ccc(C(=O)Nc2onc3c2CCCC3)cc1` the “activity change, negative = cytotoxicity” value was inactive: -22.3%.
With `O=C(c1ccco1)N1CCN(c2nc(C3CC3)nc3c2nnn3Cc2ccccc2Cl)CC1` the Potency was inconclusive: 13 µM [cytotoxic, partial curve, poor fit].
For `COC(=O)c1cc2c(ccn2-c2ccc(F)cc2)n1CC(=O)OC(C)C`, the Potency was inconclusive: 23.1 µM [cytotoxic, partial curve, poor fit].
In the case of `CCCCCn1c(CN2CCN(c3cc(Cl)ccc3C)CC2)nc2c1c(=O)[nH]c(=O)n2C`, the Potency is reported as inconclusive: 2.51 µM [cytotoxic, partial curve, poor fit].
With `Cc1nn(C(C)(C)C)c(NC(=O)c2ccc(Cl)cc2Cl)c1Br` the Potency was inconclusive: 16.4 µM [cytotoxic, single point].
For `COc1cccc(-c2noc(-c3ccc(Cl)nc3)n2)c1`, the “activity change, negative = cytotoxicity” value was inactive: -8.49%.
In the case of `O=C(c1cc(COc2ccc(F)cc2Cl)on1)N1CCCCCCC1`, the Potency is reported as inconclusive: 16.4 µM [cytotoxic, partial curve].
With `CC1Cc2ccccc2N1C(=O)COC(=O)c1ccc([N+](=O)[O-])o1` (stereo not given) the Potency was inconclusive: 29.1 µM [rising, single point].
With `Cn1ccc2c(-c3ccc(C(=O)O)cc3)cc3c(c21)C1CCC3C1` (stereo not given) the “activity change, negative = cytotoxicity” value was inactive: 3.23%.
In the case of `COc1ccc(C2=CC(c3ccc(N(C)C)cc3)n3nnnc3N2)cc1` (stereo not given), the “activity change, negative = cytotoxicity” value is reported as inactive: -18.4%.
In the case of `COc1ccc(N(C(=O)COc2ccccc2OC)S(=O)(=O)c2ccc(C)cc2)cc1`, the “activity change, negative = cytotoxicity” value is reported as inactive: 1.71%.
For `CCOC(=O)c1cc(NC(=O)N(CC)C2CCCCC2)c(C)nc1C`, the Potency was active: 23.1 µM.
With `O=C(CSc1c2c(nc3ccc(Cl)cc13)CCCC2)N1CCN(C(=O)c2ccco2)CC1` the Potency was inconclusive: 29.1 µM [cytotoxic, partial curve, poor fit].
In the case of `C#CCN(C#N)c1nc(NCC)nc(NC(C)C)n1`, the Potency is reported as inconclusive: 23.1 µM [cytotoxic, single point].
With `O=S(=O)(Nc1nc2ccccc2nc1Nc1ccc2c(c1)OCO2)c1ccc(F)cc1` the Potency was active: 5.8 µM.
In the case of `O=C(NCc1cc(C(F)(F)F)cc(C(F)(F)F)c1)C1CC(c2c(Cl)cccc2Cl)=NO1` (stereo not given), the Potency is reported as inconclusive: 23.1 µM [cytotoxic, partial curve, poor fit].
For `COc1ccccc1-c1cnc(C(O)c2ccc(CN3CCCC3)cc2)[nH]1` (stereo not given), the “activity change, negative = cytotoxicity” value was inactive: -5.66%.
With `COc1ccc(N2CCN(CCNC(=O)c3ccc4c(c3)[nH]c(=S)n3c5ccccc5nc43)CC2)cc1` the “activity change, negative = cytotoxicity” value was inactive: -12.4%.
With `COc1ccc(N2CCN(C(=O)CSc3nc4c(c(=O)n(C)c(=O)n4C)n3C(C)C)CC2)cc1` the Potency was inconclusive: 10.3 µM [cytotoxic, partial curve].
For `COC(=O)c1ccccc1NC(=O)CN1CCC(n2nnc3cc(C(F)(F)F)ccc32)CC1`, the Potency was active: 4.11 µM.
For `CCN(CC)S(=O)(=O)c1ccc(NC(=O)Cc2cccs2)cc1`, the Potency was inconclusive: 18.4 µM [cytotoxic, single point].
In the case of `Cc1c(CNC2CCCCCC2)c(C(=O)O)c(C)n1Cc1c(F)cccc1Cl`, the Potency is reported as inconclusive: 29.1 µM [rising, single point].
For `O=S(=O)(Nc1ccc(NS(=O)(=O)c2ccccc2)c(Cl)c1)c1ccccc1`, the “activity change, negative = cytotoxicity” value was inactive: -0.999%.
With `COc1ccccc1NC(=O)C(C)OC(=O)CCCc1c[nH]c2ccccc12` (stereo not given) the “activity change, negative = cytotoxicity” value was inactive: -4.24%.
With `Cn1c(=S)[nH]c2scc(-c3cccs3)c2c1=O` the Potency was inconclusive: 29.1 µM [cytotoxic, single point].
In the case of `Cn1c(=O)c2c(nc(NCCc3ccccc3)n2Cc2cccc(Br)c2)n(C)c1=O`, the Potency is reported as inconclusive: 18.4 µM [cytotoxic, single point].
For `O=C(CN1CCN(c2ccc(O)cc2)CC1)Nc1ccc(-c2ccccc2)cc1`, the Potency was inconclusive: 23.1 µM [cytotoxic, partial curve, poor fit].
In the case of `COc1ccc(C2NCCc3cc(OC)c(OC)cc32)cc1OC` (stereo not given), the “activity change, negative = cytotoxicity” value is reported as inactive: 5.46%.
With `CCCCN(CC)CCCNC(=O)c1cn(CC(C)C)c(=O)c2c1c1ccccc1n2C` the Potency was inconclusive: 29.1 µM [rising, single point].
For `C=CCN1C(=O)CSc2ccc(C(=O)NC3CCCCC3)cc21`, the “activity change, negative = cytotoxicity” value was inactive: 9.19%.
With `COc1ccc(NC(=O)CSc2nc3n[nH]c(C)c3c(=N)n2-c2ccc(Cl)c(C)c2)cc1OC` the Potency was inconclusive: 29.1 µM [rising, single point].
